Test results: patent publication EP3505186B1, “NUCLEOPHILIC CATALYSTS FOR OXIME LINKAGE” (Takeda Pharmaceutical Company Limited, priority 2010, dated 2012)

System: rFIX
Test: Evaluation of the efficacy of different nucleophilic catalysts: polysialylation of rFIX with aminooxy-PSA, SEC-HPLC
Conditions: SEC-HPLC; 10 mM catalyst, 1 mg/ml rFIX, pH 6.0, 5-fold molar aminooxy-PSA reagent excess, 100 µM NaIO4, 2 hrs, room temperature

First: Nc1ccc(S(=O)(=O)O)cc1 [sulfanilic acid]
Second: Nc1ccc(C(=O)O)cc1 [p-aminobenzioc acid, p-aminobenzoic acid]
The “di-PSAylated rFIX” value of the first is lower: 11.8% for the first, 18.1% for the second.

Going from Nc1ccccc1 [aniline] to Nc1ccccc1C(=O)O [o-aminobenzioc acid, o-aminobenzoic acid], the “di-PSAylated rFIX” value falls from 47.7% to 30.9%.

First: Nc1cccc(C(=O)O)c1 [m-aminobenzioc acid, m-aminobenzoic acid]
Second: NC(=O)c1ccccc1N [o-aminobenzamide]
The “di-PSAylated rFIX” value of the first is higher: 27.6% for the first, 15.9% for the second.

Compared with Nc1ccc(S(=O)(=O)O)cc1 [sulfanilic acid], Nc1ccc(C(=O)O)cc1 [p-aminobenzioc acid, p-aminobenzoic acid] is lower in “free rFIX” value: 52.4% for the first, 42.6% for the second.

Compared with Nc1ccccc1 [aniline], Nc1ccccc1C(=O)O [o-aminobenzioc acid, o-aminobenzoic acid] is higher in “free rFIX” value: 18.7% for the first, 30.6% for the second.

First: Nc1cccc(C(=O)O)c1 [m-aminobenzioc acid, m-aminobenzoic acid]
Second: NC(=O)c1ccccc1N [o-aminobenzamide]
The “free rFIX” value of the first is lower: 34.4% for the first, 45.7% for the second.

First: Nc1ccc(S(=O)(=O)O)cc1 [sulfanilic acid]
Second: Nc1ccc(C(=O)O)cc1 [p-aminobenzioc acid, p-aminobenzoic acid]
The “mono-PSAylated rFIX” value of the first is lower: 35.8% for the first, 39.3% for the second.

Compared with Nc1ccccc1 [aniline], Nc1ccccc1C(=O)O [o-aminobenzioc acid, o-aminobenzoic acid] is higher in “mono-PSAylated rFIX” value: 33.6% for the first, 38.5% for the second.

Compared with Nc1cccc(C(=O)O)c1 [m-aminobenzioc acid, m-aminobenzoic acid], NC(=O)c1ccccc1N [o-aminobenzamide] is higher in “mono-PSAylated rFIX” value: 38.0% for the first, 38.4% for the second.

Same assay, conditions: pH 6

In the case of Cc1cccc(N)c1 [m-toluidine], the “di-PSAylated rFIX” value is reported as 31.4%.

With Cc1cccc(N)c1 [m-toluidine] the “free rFIX” value was 27.8%.

Cc1cccc(N)c1 [m-toluidine] was tested, and the “mono-PSAylated rFIX” value was 40.8%.
